Experimental data as given in patent US5451571A (The Cleveland Clinic Foundation, priority 1994, dated 1995).
Not every detail of the peptide structures is certain; ends, links or a residue may be inferred. Residues, ends and D or L forms follow the SMILES beside them.

What was measured:
[1] = tested on: dorsal motor nucleus of the vagus (dmnX); assay: Unilateral microinjection into the dmnX of anesthetized rats, MAP and HR; type: in vivo, rat; settings: for HEART RATE Onset / MEAN BLOOD PRESSURE Onset / HEART RATE Duration / HEART RATE Peak / MEAN BLOOD PRESSURE Duration / MEAN BLOOD PRESSURE Peak: dmnX; for HEART RATE Duration / HEART RATE Peak / MEAN BLOOD PRESSURE Duration / MEAN BLOOD PRESSURE Peak: calculated from the onset
[2] = tested on: nucleus tractus solitarii (nTS); assay: Unilateral microinjection into the nTS of anesthetized rats, MAP and HR; type: in vivo, rat
[3] = tested on: rat hypothalamo-neurohypophysial system (HNS) explants; assay: AVP release from perfused hypothalamo-neurohypophysial system (HNS) explants; type: cell-based
Wistar Kyoto (WKY) rats = assay: Blood angiotensin peptides (RIA) after i.v. Ang I in conscious WKY with enzyme inhibitors; type: in vivo, rat
Method: (§1) All experiments were carried out in strict adherence to the principles sponsored by the American Physiological Society. Male 16-week-old SHR(319±4 gm) and WKY(315±4 gm) controls (Charles River, Wilmington, Mass.) were housed in rooms maintained on a 12 hr light-dark cycle. Animals ate a solid diet of rat chow (Purina, Bedford, Ohio) and had free access to water. Cannulas (PE-50 and PE-10, Clay Adams Becton Dickinson, Parsippany, N.J.) were implanted into a femoral artery and vein using aseptic conditions in rats anesthetized with 1% halothane 24 hours beforehand. The free ends of the cannulas were tunneled under the skin and externalized at the back of the neck.
(§2) Conscious rats were divided into five groups. Group I (n=4 SHR and 4 WKY) received an i.v. injection of 0.9% NaCl. Group II (n=4 SHR and 4 WKY) was given an i.v. injection of enalaprilat (MK-422,2 mg/kg). Group III (n=4 SHR and 4 WKY) was injected with (N-{N-[1-(S)-carboxy-3-phenylpropyl]-(S)-phenylalanyl}-(S)-isoserine) at a dose of 15 mg/kg. […] Group IV (n=4 SHR and 4 WKY) received both MK-422 (2 mg/kg) and SCH 39,370 (15 mg/kg). Group V (n=3 SHR and 3 WKY) were given MK- 422 (2 mg/kg) and Z-prolyl-prolinal (5 mg/kg), a specific inhibitor of prolyl endopeptidase (Friedman TC, Orlowski M, Wilk S: Prolyl Endopeptidase: Inhibition in vivo by N-benzyloxycarbonyl-prolyl-prolinal. J. Neurochem. 42:237-241,1984). Either saline (vehicle) or the enzyme inhibitors were administered 20 minutes before an i.v. injection of 0.2 ml of Ang I (2 nmol) in heparinized saline. Serial samples of arterial blood (0.2 ml) were rapidly collected into ice-chilled tubes containing 5 ml of 80% ethanol/0.1N HCL every 15-30 sec before and after injection of Ang I. The amount of blood removed in each sample was replaced with an equal volume of saline. The dead space (0.08 ml) of the femoral artery catheter was cleared of any remaining saline or blood before obtaining the samples.
(§3) Peptide Extraction and Analyses: Samples were centrifuged at 5,000 g for 20 minutes; the supernatant was stored for 12 hours at -20° C. After a second centrifugation step (10,000 g, 20 min) the supernatant was diluted 1:1 (V:V) with 1% heptaflurobutyric acid (HFBA), stored for 4-6 […] hours at 4° C., and centrifuged again at 15,000 g. This supernatant was further diluted 1:4 with 0.2% HFBA and concentrated on a Sep-Pak Vac Cartridge (Millipore Co., Milford, Mass.) activated beforehand with 3 ml of 60% acetonitrile/0.2% HFBA, 3 ml of 0.1% bovine serum albumin in 0.2% HFBA, and 5 ml of HFBA. After application of the supernatant, the column was washed with 10 ml of 0.2% HFBA. Angiotensin peptides were eluted with 8 ml of 60% acetonitrile/0.2% HFBA. […]

[4] = tested on: spontaneously hypertensive rats (SHR); assay: Blood angiotensin peptides (RIA) after i.v. Ang I in conscious SHR with enzyme inhibitors; type: in vivo, rat
Method: as §1, §2, §3

[5] = nTS, 0.1 ng, calculated from the onset
[6] = nTS, 2.5 ng, calculated from the onset

## CC[C@H](C)[C@H](NC(=O)[C@H](Cc1ccc(O)cc1)NC(=O)[C@@H](NC(=O)[C@H](CCCNC(=N)N)NC(=O)[C@@H](N)CC(=O)O)C(C)C)C(=O)N[C@@H](Cc1c[nH]cn1)C(=O)N1CCC[C@H]1C(=O)N[C@@H](Cc1ccccc1)C(=O)O [Ang II]
[1]; 0.1 ng into dmnX, same animals
  decrease in HR: -19±3 beats/min
  decrease in MAP: -14±3 mm Hg
[1]; 2.5 ng into dmnX
  decrease in MAP: -14±2 mm Hg
  fall in HR: -6±2 beats/min
[1]; 0.1 ng
  HEART RATE Onset: 83 ± 20 s
  MEAN BLOOD PRESSURE Onset: 20 ± 6 s
  HEART RATE Duration: 482 ± 153 s
  HEART RATE Peak: 136 ± 36 s
  MEAN BLOOD PRESSURE Duration: 310 ± 78 s
  MEAN BLOOD PRESSURE Peak: 39 ± 8 s
[1]; 2.5 ng
  HEART RATE Onset: 81 ± 41 s
  MEAN BLOOD PRESSURE Onset: 12 ± 7 s
  HEART RATE Duration: 288 ± 75 s
  HEART RATE Peak: 63 ± 23 s
  MEAN BLOOD PRESSURE Duration: 207 ± 25 s
  MEAN BLOOD PRESSURE Peak: 37 ± 9 s
[2]; 0.1 ng into nTS, both peptides in the same animals, n=5
  decrease in MAP: -16±3 mm Hg
[2]; 0.1 ng into nTS, same animals
  bradycardia (HR change): -13±3 beats/min
[2]; 2.5 ng into nTS, same animals
  bradycardia (HR change): -14±4 beats/min
[2]; 2.5 ng into nTS, same animals, n=7
  decrease in MAP: -18±2 mm Hg
[2]; 250 ng into either the nTS or the dmnX, n=18
  action on MAP at high dose: biphasic depressor/pressor action on MAP or produced a pure pressor response
[2]; nTS, 0.1 ng
  HEART RATE Onset: 60 ± 14 s
  MEAN BLOOD PRESSURE Onset: 28 ± 4 s
[2]; [5]
  HEART RATE Duration: 442 ± 74 s
  MEAN BLOOD PRESSURE Duration: 206 ± 51 s
  MEAN BLOOD PRESSURE Peak: 40 ± 10 s
[2]; nTS, 2.5 ng
  HEART RATE Onset: 81 ± 17 s
  MEAN BLOOD PRESSURE Onset: 20 ± 8 s
[2]; [6]
  HEART RATE Duration: 342 ± 50 s
  HEART RATE Peak: 68 ± 21 s
  MEAN BLOOD PRESSURE Peak: 45 ± 8 s
[3]; 4 μM
  time to significant increase in AVP release: ≤ 15 min
[3]; 4 μM after two hours of [Sar1,Thr8] Ang II 20 μM
  further AVP release on addition of the peptide: did not cause further increases
[3]; highest concentration tested, 4.0 μM, 15 minutes
  AVP content in the HNS effluent, of control: 268% ±66

## CC[C@H](C)[C@H](NC(=O)[C@H](Cc1ccc(O)cc1)NC(=O)[C@@H](NC(=O)[C@H](CCCNC(=N)N)NC(=O)[C@@H](N)CC(=O)O)C(C)C)C(=O)N[C@@H](Cc1c[nH]cn1)C(=O)N1CCC[C@H]1C(=O)N[C@@H](Cc1ccccc1)C(=O)N[C@@H](Cc1c[nH]cn1)C(=O)N[C@@H](CC(C)C)C(=O)O [Ang I] (H-DRVYIHPFHL-OH)
Wistar Kyoto (WKY) rats; WKY control rats after Ang I 2 nmol i.v.
  peak level of Ang-(1-7) as share of Ang II concentration: 4.9%
Wistar Kyoto (WKY) rats; WKY, 15 seconds after Ang I 2 nmol i.v., saline (label Ang I) or SCH 39,370 15 mg/kg 20 minutes before
  peak level of Ang I in blood: 3.8 ± 0.5 pmol/mL
Wistar Kyoto (WKY) rats; WKY, 15 seconds after Ang I 2 nmol i.v., saline (label Ang I) or SCH 39,370 15 mg/kg before
  peak level of Ang II in blood: 11.5 ± 2.1 pmol/mL
Wistar Kyoto (WKY) rats; WKY, 15 seconds after Ang I 2 nmol i.v., saline (label Ang I), MK-422 2 mg/kg, or MK-422 plus SCH 39,370 15 mg/kg before
  peak level of Ang-(1-7) in blood: 0.57 ± 0.10 pmol/mL
[4]; SHR control rats after Ang I 2 nmol i.v.
  peak level of Ang-(1-7) as share of Ang II concentration: 6.3%
[4]; SHR, 15 seconds after Ang I 2 nmol i.v., saline (label Ang I) or SCH 39,370 15 mg/kg 20 minutes before
  peak level of Ang I in blood: 4.9 ± 0.9 pmol/mL
[4]; SHR, 15 seconds after Ang I 2 nmol i.v., saline (label Ang I) or SCH 39,370 15 mg/kg before
  peak level of Ang II in blood: 13.1 ± 2.2 pmol/mL
[4]; SHR, 15 seconds after Ang I 2 nmol i.v., saline (label Ang I), MK-422 2 mg/kg, or MK-422 plus SCH 39,370 15 mg/kg before
  peak level of Ang-(1-7) in blood: 0.83 ± 0.10 pmol/mL
